Laboratory results: patent US5783681, “Androgen regulation with DNA sequences of rat probasin gene” (University of Manitoba)

Tests used:
[1] = target: androgen receptor V865L (Homo sapiens) (UniProt P10275); assay: activity in cells; settings: 10 nM DHT, background 4.2
[2] = target: T1, androgen receptor (hAR) wild type (Homo sapiens) (UniProt P10275); assay: activity in cells; settings: 10 nM DHT, background 4.2
T1 sequence (looked up, limits assumed): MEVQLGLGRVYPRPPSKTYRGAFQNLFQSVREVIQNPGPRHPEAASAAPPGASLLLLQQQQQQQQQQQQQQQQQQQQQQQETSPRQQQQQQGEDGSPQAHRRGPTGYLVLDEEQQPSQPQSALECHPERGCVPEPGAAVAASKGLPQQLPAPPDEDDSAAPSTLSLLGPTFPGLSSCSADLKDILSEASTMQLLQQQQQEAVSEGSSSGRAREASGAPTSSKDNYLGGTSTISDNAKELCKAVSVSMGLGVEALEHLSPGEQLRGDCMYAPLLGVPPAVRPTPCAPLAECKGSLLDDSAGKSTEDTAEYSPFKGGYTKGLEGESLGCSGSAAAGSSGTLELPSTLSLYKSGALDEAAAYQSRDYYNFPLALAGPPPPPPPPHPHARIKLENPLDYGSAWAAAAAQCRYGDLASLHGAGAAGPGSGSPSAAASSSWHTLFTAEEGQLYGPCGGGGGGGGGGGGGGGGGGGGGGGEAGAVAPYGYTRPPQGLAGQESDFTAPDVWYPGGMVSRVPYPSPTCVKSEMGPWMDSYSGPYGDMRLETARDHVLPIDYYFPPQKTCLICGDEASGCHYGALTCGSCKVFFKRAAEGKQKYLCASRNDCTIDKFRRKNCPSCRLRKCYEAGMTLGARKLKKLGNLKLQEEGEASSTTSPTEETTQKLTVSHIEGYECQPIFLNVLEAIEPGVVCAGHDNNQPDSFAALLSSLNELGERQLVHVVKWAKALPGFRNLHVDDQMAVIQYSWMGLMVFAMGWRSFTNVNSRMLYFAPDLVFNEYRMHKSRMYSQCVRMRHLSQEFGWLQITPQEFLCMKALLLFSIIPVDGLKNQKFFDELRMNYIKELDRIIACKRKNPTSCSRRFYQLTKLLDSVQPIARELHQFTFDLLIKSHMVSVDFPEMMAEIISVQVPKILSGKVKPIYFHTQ

[3] = target: T2, glucocorticoid receptor (GR) (Rattus norvegicus) (UniProt P06536); assay: activity in cells; settings: PC-3, CAT reporter, DEX; protein in cells
T2 sequence (looked up, limits assumed): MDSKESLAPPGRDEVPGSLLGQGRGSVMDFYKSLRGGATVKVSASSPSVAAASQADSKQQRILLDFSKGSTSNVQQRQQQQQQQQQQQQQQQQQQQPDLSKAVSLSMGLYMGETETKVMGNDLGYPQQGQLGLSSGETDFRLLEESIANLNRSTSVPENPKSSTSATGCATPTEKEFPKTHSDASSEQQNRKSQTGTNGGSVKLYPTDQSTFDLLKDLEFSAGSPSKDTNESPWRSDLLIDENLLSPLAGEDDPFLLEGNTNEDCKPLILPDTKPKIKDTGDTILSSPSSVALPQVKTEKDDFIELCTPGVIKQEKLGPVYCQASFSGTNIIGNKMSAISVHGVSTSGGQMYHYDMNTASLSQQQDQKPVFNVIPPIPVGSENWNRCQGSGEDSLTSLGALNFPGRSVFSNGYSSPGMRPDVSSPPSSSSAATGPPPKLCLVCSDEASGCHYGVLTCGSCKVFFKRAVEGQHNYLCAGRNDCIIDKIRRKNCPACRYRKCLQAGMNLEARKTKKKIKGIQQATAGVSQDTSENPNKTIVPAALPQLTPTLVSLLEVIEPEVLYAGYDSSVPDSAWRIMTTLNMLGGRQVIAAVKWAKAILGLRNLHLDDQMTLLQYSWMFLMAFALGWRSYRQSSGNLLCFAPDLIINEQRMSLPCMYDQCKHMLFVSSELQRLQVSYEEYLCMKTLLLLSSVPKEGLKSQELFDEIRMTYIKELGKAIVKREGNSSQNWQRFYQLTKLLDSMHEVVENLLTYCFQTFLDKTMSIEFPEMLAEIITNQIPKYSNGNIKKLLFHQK

[4] = target: T3, androgen receptor (AR) (Rattus norvegicus) (UniProt P15207); assay: activity in cells; settings: PC-3, CAT reporter, DHT; protein in cells
T3 sequence (looked up, limits assumed): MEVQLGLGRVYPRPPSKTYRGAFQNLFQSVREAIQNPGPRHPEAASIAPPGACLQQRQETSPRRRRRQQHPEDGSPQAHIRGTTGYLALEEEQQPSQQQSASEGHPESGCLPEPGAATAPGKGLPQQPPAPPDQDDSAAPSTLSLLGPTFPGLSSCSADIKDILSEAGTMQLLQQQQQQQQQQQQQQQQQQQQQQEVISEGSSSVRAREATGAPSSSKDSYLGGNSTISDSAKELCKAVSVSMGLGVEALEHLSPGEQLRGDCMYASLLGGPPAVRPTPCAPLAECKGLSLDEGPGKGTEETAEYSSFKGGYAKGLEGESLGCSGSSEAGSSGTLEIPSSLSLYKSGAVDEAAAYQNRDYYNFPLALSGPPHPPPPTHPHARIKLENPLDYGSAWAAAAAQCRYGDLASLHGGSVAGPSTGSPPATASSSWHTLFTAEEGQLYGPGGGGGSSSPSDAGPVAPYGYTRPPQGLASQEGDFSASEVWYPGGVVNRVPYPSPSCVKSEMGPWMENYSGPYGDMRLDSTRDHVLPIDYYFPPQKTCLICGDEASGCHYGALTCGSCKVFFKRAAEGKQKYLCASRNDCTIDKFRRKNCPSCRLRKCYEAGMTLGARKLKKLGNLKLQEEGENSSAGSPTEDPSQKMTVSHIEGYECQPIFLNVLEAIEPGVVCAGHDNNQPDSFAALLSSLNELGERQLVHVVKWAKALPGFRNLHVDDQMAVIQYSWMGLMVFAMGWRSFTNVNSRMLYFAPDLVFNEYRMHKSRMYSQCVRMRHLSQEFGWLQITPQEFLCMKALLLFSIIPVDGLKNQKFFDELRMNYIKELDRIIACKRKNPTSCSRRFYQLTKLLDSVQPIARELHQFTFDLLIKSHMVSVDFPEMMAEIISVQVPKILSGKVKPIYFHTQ

[5] = target: T4, GST-AR2 (androgen receptor DNA-binding domain and hinge region) (Rattus norvegicus) (UniProt P15207); assay: footprint; settings: purified recombinant protein, protein details: GST fusion, expressed in E. coli
T4 sequence (looked up, limits assumed): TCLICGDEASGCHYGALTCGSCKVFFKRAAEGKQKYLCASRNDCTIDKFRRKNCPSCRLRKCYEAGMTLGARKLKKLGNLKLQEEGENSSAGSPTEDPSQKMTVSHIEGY

## TAGTCATCATGTTTAAACATCTACCATTCCAGTTAAGAAAATATGATAGCATCTTGTTCTTAGTCTTTTTCTTAATAGGGACATAAAGCCCACAAATAAAAATATGCCTGAAGAATGGGACAGGCATTGGGCATTGTCCATGCCTAGTAAAGTACTCCAAGAACCTATTTGTATACTAGATGACACAATGTCAATGTCTGTGTACAACTGCCAACTGGGATGCAAGACACTGCCCATGCCAATCATCCTGAAAAGCAGCTATAAAAAGCAGGAAGCTACTCTGCACCTTGTCAGTGAGGTCCAGATACCTACAG (double strand) [probasin -286 to +28]
[1]
  activity on this sequence (dpm/min/mg protein): 49
[2]
  activity on this sequence (dpm/min/mg protein): 50
[3]
  activity on this sequence (fold induction): 29
[4]
  activity on this sequence (fold induction): 42
[5]; amount of AR giving footprint, ARE-1 60 ng and ARE-2 60 ng
  binding signal: 60 ng

## AAGCTTCCACAAGTGCATTTAGCCTCTCCAGTATTGCTGATGAATCCACAGTTCAGGTTCAATGGCGTTCAAAACTTGATCAAAAATGACCAGACTTTATATTCTTACACCAACATCTATCTGATTGGAGGAATGGATAATAGTCATCATGTTTAAACATCTACCATTCCAGTTAAGAAAATATGATAGCATCTTGTTCTTAGTCTTTTTCTTAATAGGGACATAAAGCCCACAAATAAAAATATGCCTGAAGAATGGGACAGGCATTGGGCATTGTCCATGCCTAGTAAAGT (double strand) [probasin -426 to -134]
[5]; ARE-1 footprint, ARE-2 absent, variant of probasin -286 to +28
  binding signal: 200 ng

For at least one entry, the source does not settle the construct or the ends of the probe. For part of these data: Protein sequences can lack the tags named with them. For part of these data: The direction of at least one scale is not stated here.
